Laboratory results taken from publication doi:10.1101/2023.05.30.542914 (bioRxiv, 2023).
These are yes or no findings as the source states them, for the method shown. Binding seen in cells or lysates may run through a third protein. A yes stands for co-enrichment or nearness to the bait. Other partners may have been found. Where a sequence is shown, tags or fusion partners need not be part of it.

Chains of the proteins cited; added tags and fusions are not shown.
UniProt P53621: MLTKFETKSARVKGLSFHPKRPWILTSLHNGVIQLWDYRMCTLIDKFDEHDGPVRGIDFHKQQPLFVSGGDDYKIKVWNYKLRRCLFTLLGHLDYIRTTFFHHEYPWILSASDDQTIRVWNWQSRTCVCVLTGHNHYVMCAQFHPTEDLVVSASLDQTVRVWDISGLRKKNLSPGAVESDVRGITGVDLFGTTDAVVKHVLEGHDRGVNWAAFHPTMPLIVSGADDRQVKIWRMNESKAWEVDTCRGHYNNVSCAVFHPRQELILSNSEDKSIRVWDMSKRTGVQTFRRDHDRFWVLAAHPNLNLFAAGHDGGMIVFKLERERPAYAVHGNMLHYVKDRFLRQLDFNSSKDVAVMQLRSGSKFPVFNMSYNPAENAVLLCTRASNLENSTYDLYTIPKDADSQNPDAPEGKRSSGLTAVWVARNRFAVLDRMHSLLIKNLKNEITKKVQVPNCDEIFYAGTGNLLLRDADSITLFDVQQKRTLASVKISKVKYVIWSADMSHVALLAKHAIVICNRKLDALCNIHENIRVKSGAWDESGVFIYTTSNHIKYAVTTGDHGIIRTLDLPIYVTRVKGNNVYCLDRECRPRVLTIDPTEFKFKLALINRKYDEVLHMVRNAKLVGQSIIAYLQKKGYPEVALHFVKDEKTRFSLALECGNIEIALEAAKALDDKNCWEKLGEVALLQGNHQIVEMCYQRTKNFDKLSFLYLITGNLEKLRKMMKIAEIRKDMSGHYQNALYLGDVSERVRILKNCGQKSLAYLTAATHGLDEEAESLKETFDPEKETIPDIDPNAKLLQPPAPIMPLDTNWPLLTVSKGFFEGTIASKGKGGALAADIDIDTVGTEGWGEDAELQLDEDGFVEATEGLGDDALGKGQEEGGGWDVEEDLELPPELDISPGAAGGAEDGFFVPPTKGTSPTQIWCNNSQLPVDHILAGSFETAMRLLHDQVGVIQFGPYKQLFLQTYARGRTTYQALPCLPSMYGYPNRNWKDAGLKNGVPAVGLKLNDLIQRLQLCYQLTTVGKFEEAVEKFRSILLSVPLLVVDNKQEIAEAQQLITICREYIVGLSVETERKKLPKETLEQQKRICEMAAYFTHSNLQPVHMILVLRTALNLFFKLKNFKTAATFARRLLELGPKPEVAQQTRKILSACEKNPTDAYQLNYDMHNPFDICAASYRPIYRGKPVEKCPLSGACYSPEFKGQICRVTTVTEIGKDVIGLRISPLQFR

T1: Wnt7a-HA, full length (Wnt7a-FL) (human) (UniProt O00755)
T1 sequence: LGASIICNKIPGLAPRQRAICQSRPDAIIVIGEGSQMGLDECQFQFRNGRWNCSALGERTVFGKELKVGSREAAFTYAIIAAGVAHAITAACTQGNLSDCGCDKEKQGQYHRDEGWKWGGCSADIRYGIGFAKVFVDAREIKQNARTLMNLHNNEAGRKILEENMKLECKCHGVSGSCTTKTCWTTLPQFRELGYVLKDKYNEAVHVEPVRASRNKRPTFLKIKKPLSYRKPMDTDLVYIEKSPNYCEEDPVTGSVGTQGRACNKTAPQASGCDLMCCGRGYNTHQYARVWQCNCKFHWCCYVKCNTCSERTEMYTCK

B1: COPB2 (protein, UniProt P35606 1-906)
chain: MPLRLDIKRKLTARSDRVKSVDLHPTEPWMLASLYNGSVCVWNHETQTLVKTFEVCDLPVRAAKFVARKNWVVTGADDMQIRVFNYNTLERVHMFEAHSDYIRCIAVHPTQPFILTSSDDMLIKLWDWDKKWSCSQVFEGHTHYVMQIVINPKDNNQFASASLDRTIKVWQLGSSSPNFTLEGHEKGVNCIDYYSGGDKPYLISGADDRLVKIWDYQNKTCVQTLEGHAQNVSCASFHPELPIIITGSEDGTVRIWHSSTYRLESTLNYGMERVWCVASLRGSNNVALGYDEGSIIVKLGREEPAMSMDANGKIIWAKHSEVQQANLKAMGDAEIKDGERLPLAVKDMGSCEIYPQTIQHNPNGRFVVVCGDGEYIIYTAMALRNKSFGSAQEFAWAHDSSEYAIRESNSIVKIFKNFKEKKSFKPDFGAESIYGGFLLGVRSVNGLAFYDWDNTELIRRIEIQPKHIFWSDSGELVCIATEESFFILKYLSEKVLAAQETHEGVTEDGIEDAFEVLGEIQEIVKTGLWVGDCFIYTSSVNRLNYYVGGEIVTIAHLDRTMYLLGYIPKDNRLYLGDKELNIISYSLLVSVLEYQTAVMRRDFSMADKVLPTIPKEQRTRVAHFLEKQGFKQQALTVSTDPEHRFELALQLGELKIAYQLAVEAESEQKWKQLAELAISKCQFGLAQECLHHAQDYGGLLLLATASGNANMVNKLAEGAERDGKNNVAFMSYFLQGKVDACLELLIRTGRLPEAAFLARTYLPSQVSRVVKLWRENLSKVNQKAAESLADPTEYENLFPGLKEAFVVEEWVKETHADLWPAKQYPLVTPNEERNVMEEGKDFQPSRSTAQQELDGKPASPTPVIVASHTANKEEKSLLELEVDLDNLELEDIDTTDINLDEDILDD

Molecular target: T1, Wnt7a-HA, full length (Wnt7a-FL) (human)
Test: affinity purification with mass spectrometry

Row | Molecule | binding
1 | COPA (from UniProt P53621) | binds
2 | B1 | binds
